{"source": "PubChem BioAssay AID1347076", "about": "(National Center for Advancing Translational Sciences (NCATS), 2019)", "note": "The campaign covered roughly 400,000 compounds. About 13,000 (3.2%) were called active. This list was built around the results that the source calls inconclusive (neither active nor inactive); the mix of calls is not that of the screen. The call rests on the fitted dose curve; in most records, active means well fitted cell-killing curve with a large enough effect; inconclusive means small, poorly fitted or top-dose-only effect, or effect the other way; inactive means flat fitted curve, though single readings scatter. Potencies of inconclusive entries are doubtful fits and often do not repeat. On the % scale 0 is the no-effect control and ±100 the full control effect; potency means the concentration at half of the fitted maximal effect."}
{"experiment": "qHTS assay for MDR1-selective chemotherapeutics: Primary screen using the drug-selected MDR subline cells KB-V1; further: nearly all actives have a fitted effect of over 60% in size", "settings": "KB-V1 MDR cells viability, CellTiter-Glo, 72 h; activity change, negative = cytotoxicity: at 46.1 µM (top of the series)", "outline": "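KB-V1 MDR subline cells in DMEM (phenol-red free, 10% FBS) exposed to compounds in qHTS concentration series for 72 h at 37 degrees C. Viability read by CellTiter-Glo luminescence; concentration-effect curves fitted after normalization and correction.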"}
{"smiles": "CC1=C(C(=O)N(C)C)CC(CC(=O)NCCCCc2ccccc2)C(=O)N1Cc1ccc(C(C)(C)C)cc1", "note": "(stereo not given)", "Potency": "inconclusive: 4.11 µM [cytotoxic, single point]"}
{"smiles": "COc1ccccc1NC(=O)C(=O)NCCC1CCCCN1S(=O)(=O)c1ccc(F)cc1", "note": "(stereo not given)", "activity change, negative = cytotoxicity": "inactive: -2.32%"}
{"smiles": "CC(=O)Nc1ccc(C(=S)NCc2ccco2)cc1", "Potency": "inconclusive: 18.4 µM [cytotoxic, single point]"}
{"smiles": "CCCCOc1ccc(CNC(=O)CN2CCSc3ccccc32)cc1", "Potency": "inconclusive: 18.4 µM [cytotoxic, single point]"}
{"smiles": "COc1ccc(CNC(=O)COc2ccc(F)cc2)cc1", "Potency": "inconclusive: 0.0065 µM [cytotoxic, full curve]"}
{"smiles": "CCN(CC)S(=O)(=O)c1ccc2c(c1)nc(SCc1nc3ccsc3c(=O)[nH]1)n2CC", "Potency": "inconclusive: 25.9 µM [cytotoxic, partial curve, poor fit]"}
{"smiles": "Cc1cc(C)cc(NC(=O)c2cccc(N3C(=O)C4C5C=CC(C5)C4C3=O)c2)c1", "note": "(stereo not given)", "activity change, negative = cytotoxicity": "inactive: -12.2%"}
{"smiles": "CCCCCCSC1=C(C#N)C(=O)NC2(CCCCC2)S1", "Potency": "inconclusive: 20.6 µM [rising, partial curve, poor fit]"}
{"smiles": "CC(C)(C)Nc1nc(OCC#N)nc(N2CCCCC2)n1", "Potency": "inconclusive: 0.58 µM [rising, full curve, poor fit]"}
{"smiles": "CCCCn1c(SCC(=O)NC2CC2)nnc1-c1ccncc1", "activity change, negative = cytotoxicity": "inactive: 23.6%"}
{"smiles": "CCn1c(SCC(=O)c2cc(C)n(-c3ccc(C(=O)OC)cc3)c2C)nnc1-c1cccnc1", "Potency": "inconclusive: 16.4 µM [cytotoxic, partial curve, poor fit]"}
{"smiles": "CCOC(=O)/C=c1\\s/c(=C\\c2c(OCC)ccc3ccccc23)c(=O)n1CC(=O)NCC1CCCO1", "note": "(stereo not given)", "Potency": "inconclusive: 25.9 µM [cytotoxic, partial curve, poor fit]"}
{"smiles": "Oc1cccc(/C=N/Nc2cc(N3CCOCC3)nc(N3CCOCC3)n2)c1", "Potency": "inconclusive: 7.31 µM [cytotoxic, partial curve]"}
{"smiles": "COc1ccc(N(CC(=O)NCCSc2ccccn2)S(C)(=O)=O)cc1", "Potency": "inconclusive: 8.2 µM [cytotoxic, partial curve]"}
{"smiles": "C(=C\\c1ccnc2ccccc12)/c1cccs1", "Potency": "inconclusive: 29.1 µM [rising, single point]"}
{"smiles": "CC(C)CCOc1ccc(C2=NNC(=O)CC2)cc1", "Potency": "active: 1.84 µM"}
{"smiles": "Cc1nc2ccccn2c1-c1csc(Nc2ccc(C(=O)O)cc2)n1", "Potency": "inconclusive: 29.1 µM [cytotoxic, single point]"}
{"smiles": "CC1(C)CC(=O)C=C(NNC(=O)c2ccccc2)C1", "Potency": "inconclusive: 25.9 µM [cytotoxic, single point]"}
{"smiles": "CCN(C(=O)CSc1nc2scc(-c3ccccc3)c2c(=O)n1C)C1CCS(=O)(=O)C1", "note": "(stereo not given)", "activity change, negative = cytotoxicity": "inactive: -13.2%"}
{"smiles": "CC(C)C[C@H](NC(=O)c1nc[nH]c1C(=O)N[C@@H](CCCCNC(=O)OC(C)(C)C)C(=O)OC(C)(C)C)C(=O)OCc1ccccc1", "activity change, negative = cytotoxicity": "inactive: -25.7%"}
{"smiles": "CCc1ccc2oc(C(=O)N3CCN(c4ccccc4OC)CC3)cc(=O)c2c1", "Potency": "active: 23.1 µM"}
{"smiles": "CN(c1ccc(C(=O)NCCC2=CCCCC2)cc1)S(C)(=O)=O", "Potency": "inconclusive: 16.4 µM [cytotoxic, single point]"}
{"smiles": "COc1ccc(C(=O)NNC(=O)CSc2nc3c(c(=O)n(C)c(=O)n3C)n2C)cc1", "Potency": "inconclusive: 25.9 µM [rising, single point]"}
{"smiles": "CCOC(=O)c1c(S(=O)(=O)N2CCC(C(=O)Nc3ccccc3OC)CC2)c(C)n(CC)c1C", "Potency": "inconclusive: 18.4 µM [rising, single point]"}
{"smiles": "COc1cc(C(O)c2nc3ccccc3n2C(C)C)cc(OC)c1OC", "note": "(stereo not given)", "Potency": "inconclusive: 0.731 µM [cytotoxic, full curve, poor fit]"}
{"smiles": "COc1ccc(CCn2c(=N)c(C(=O)NCC3CCCO3)cc3c(=O)n4ccccc4nc32)cc1", "note": "(stereo not given)", "Potency": "inconclusive: 3.26 µM [rising, partial curve, poor fit]"}
{"smiles": "COc1ccc(C2=CC(=O)C[C@H](c3ccc(F)cc3)C2)c(F)c1F", "Potency": "inconclusive: 23.1 µM [cytotoxic, single point]"}
{"smiles": "C(=C\\c1ccccc1)/CN1CCN(c2ncnc3c2oc2ccccc23)CC1", "Potency": "active: 3.66 µM"}
{"smiles": "CC(C)N(C(=O)[C@H]1C[C@H](CC(=O)NCc2ccco2)C(=O)N2CCc3c([nH]c4ccc(Cl)cc34)[C@]12C)C(C)C", "Potency": "inconclusive: 20.6 µM [cytotoxic, single point]"}
{"smiles": "COc1cccc(CNc2nc3cc(-c4ccccc4)sc3c(=O)n2C)c1", "Potency": "active: 2.31 µM"}
{"smiles": "C/C=C/C(=O)OCC(=O)Nc1ccc(OC)c(Cl)c1", "activity change, negative = cytotoxicity": "inactive: 9.49%"}
{"smiles": "Cc1ccc(S(=O)(=O)N2CC3C(=O)CC(c4ccccc4)N(S(=O)(=O)c4ccc(C)cc4)C3CC2c2cccc(Cl)c2)cc1", "note": "(stereo not given)", "Potency": "inconclusive: 5.8 µM [cytotoxic, partial curve]"}
{"smiles": "Cc1ccc(Cn2c(=N)n(CC(=O)c3ccccc3)c3ccccc32)cc1", "Potency": "inconclusive: 29.1 µM [cytotoxic, partial curve, poor fit]"}
{"smiles": "CCOC(=O)c1c(C)nc(-c2ccccc2)nc1NC(=O)CC", "Potency": "inconclusive: 16.4 µM [cytotoxic, partial curve, poor fit]"}
{"smiles": "CCOC(=O)c1ccc(S(=O)(=O)N2CCN(C(=O)CSc3nc4ccccc4o3)CC2)cc1", "Potency": "inconclusive: 32.6 µM [cytotoxic, single point]"}
{"smiles": "COc1ccc(C(=O)COC(=O)[C@H](C)Nc2ccc(C(F)(F)F)cc2[N+](=O)[O-])c(OC)c1", "Potency": "inconclusive: 18.4 µM [rising, partial curve]"}
{"smiles": "CC(C)NC(=O)N1c2ccccc2Sc2ccccc21", "Potency": "inconclusive: 16.4 µM [cytotoxic, single point]"}
{"smiles": "Cn1c(=O)c2c(-c3ccc(Br)cc3)n(CCc3ccccc3)cc2n(C)c1=O", "activity change, negative = cytotoxicity": "inactive: 1.13%"}
{"smiles": "O=[N+]([O-])c1ccccc1NCc1ccc(Cl)cc1", "Potency": "inconclusive: 9.2 µM [cytotoxic, partial curve]"}
{"smiles": "CCN1CCC(=NNC(=O)CC23CC4CC(CC(C4)C2)C3)CC1", "Potency": "inconclusive: 18.4 µM [rising, partial curve, poor fit]"}
{"smiles": "Cc1cccc(NC(=S)NNc2ncc(C(F)(F)F)cc2Cl)c1", "Potency": "active: 14.6 µM"}
{"smiles": "COc1cc(CC(=O)N(c2ccccc2)c2nc(C)cs2)cc(OC)c1OC", "Potency": "inconclusive: 5.8 µM [cytotoxic, partial curve]"}
{"smiles": "CC1(C)CC(=O)C=C(NC2CCCC(O)C2)C1", "note": "(stereo not given)", "activity change, negative = cytotoxicity": "inactive: -1.81%"}
{"smiles": "NS(=O)(=O)c1ccc(CCNC(=O)NC2(C(F)(F)F)Oc3ccccc3O2)cc1", "Potency": "inconclusive: 16.4 µM [cytotoxic, single point]"}
{"smiles": "CCc1cccc(C)c1NC(=O)Cn1cc2c(n1)CCCC2", "activity change, negative = cytotoxicity": "inactive: -6.35%"}
{"smiles": "O=C(Cc1ccc(-n2c(=O)c3sccc3n(Cc3ccc(F)cc3)c2=O)cc1)NCc1ccco1", "Potency": "inconclusive: 20.6 µM [cytotoxic, single point]"}
{"smiles": "COc1ccc(-c2nnn(CC(=O)N(Cc3cccs3)C(C)C(=O)NC3CCCC3)n2)cc1OC", "note": "(stereo not given)", "Potency": "active: 2.06 µM"}
{"smiles": "CCC1=Nc2cc(C(=O)O)ccc2Sc2ccc(Cl)cc21", "activity change, negative = cytotoxicity": "inactive: 16.6%"}
{"smiles": "COc1cc(C(=O)N(Cc2ccccc2)c2cccc(C)c2)ccc1OCC(=O)N1CCOCC1", "Potency": "inconclusive: 0.0058 µM [rising, full curve, poor fit]"}
{"smiles": "Cc1cc(C)c(C)c(S(=O)(=O)N2CCN(CC(=O)c3c(N)n(Cc4ccccc4)c(=O)n(C)c3=O)CC2)c1C", "Potency": "active: 14.6 µM"}
{"smiles": "O=C(CCCN1C(=O)c2ccccc2C1=O)NCc1ccco1", "Potency": "inconclusive: 29.1 µM [rising, single point]"}
{"smiles": "CCCN1CCN(CCCNC(=S)Nc2ccc3nc(N4CCN(CC)CC4)cc(C)c3c2)CC1", "Potency": "inconclusive: 20.6 µM [cytotoxic, partial curve, poor fit]"}
{"smiles": "COc1ccccc1N1CCN(C(=O)c2cc(=O)c3cc(C)cc(C)c3o2)CC1", "Potency": "active: 0.206 µM"}
{"smiles": "NC(=O)c1cc(-c2csc(-c3cccnc3)n2)ccc1O", "Potency": "inconclusive: 18.4 µM [cytotoxic, single point]"}
{"smiles": "Cc1cccc(C)c1OCc1cc(C(=O)N2CCN(c3ccc(F)cc3)CC2)no1", "activity change, negative = cytotoxicity": "inactive: -25.3%"}
{"smiles": "CC1(C)Cc2c(C#N)c(SCc3ccccc3)nc(N3CCOCC3)c2CO1", "Potency": "inconclusive: 6.51 µM [cytotoxic, partial curve]"}
{"smiles": "CCc1cc2cc3c(cc2nc1SCC(=O)N1CCN(C(=O)c2ccco2)CC1)OCO3", "Potency": "inconclusive: 0.411 µM [cytotoxic, partial curve]"}
{"smiles": "COCCN(C(=O)COC(=O)CCC1CCCCC1)c1c(N)n(Cc2ccccc2)c(=O)[nH]c1=O", "Potency": "inconclusive: 23.1 µM [rising, partial curve, poor fit]"}
{"smiles": "CC(=O)c1c(C)[nH]c(C(=O)OCC(=O)NCc2ccccc2)c1C", "Potency": "inconclusive: 23.1 µM [cytotoxic, single point]"}
{"smiles": "COc1ccc(C2C(C(C)=O)=C(O)C(=O)N2CCCn2ccnc2)cc1OC", "note": "(stereo not given)", "Potency": "inconclusive: 23.1 µM [rising, single point]"}
{"smiles": "Cc1ccc(NC(=O)Nc2nnc(N(C)C3CCCCC3)s2)c(Cl)c1", "activity change, negative = cytotoxicity": "inactive: -2.81%"}
{"smiles": "O=C(NCc1ccccn1)c1ccc(CNS(=O)(=O)c2cccc(C(F)(F)F)c2)cc1", "Potency": "inconclusive: 29.1 µM [cytotoxic, partial curve, poor fit]"}
{"smiles": "CC(C)C(=O)Nc1cccc(C(=O)NCc2ccc(S(N)(=O)=O)cc2)c1", "Potency": "inconclusive: 20.6 µM [rising, partial curve, poor fit]"}
{"smiles": "CCOc1ccc(C(=O)NCC(=O)NCC2CCCCC2)cc1OCC", "activity change, negative = cytotoxicity": "inactive: 8.63%"}
{"smiles": "CCCNC(=O)COc1ccc2c(=O)c(Oc3ccccc3F)coc2c1", "Potency": "inconclusive: 29.1 µM [cytotoxic, single point]"}
